# Measured values from the supplement of paper PMC5355238.
# Where a name gives a salt, the structure may show the parent alone. ± gives the standard deviation of the averaged measurements. Some of the results follow. Many values rest on one well or one pass, so single values are uncertain.
# Tested on: Reh
# Assay: S-phase gammaH2AX median, Z-score vs plate median (drug alone); higher = more S-phase DNA damage
# Settings: MK1775 concentration 0 nM; 10 µM; 4 h
row,Structure (SMILES),S-phase gammaH2AX median (Z-score)
1,CN1CCN(c2cccc(Nc3nc4c(-c5ccc(S(C)(=O)=O)cc5)cccn4n3)c2)CC1,-0.07
2,CNNCc1ccc(C(=O)NC(C)C)cc1 [Procarbazine hydrochloride (Matulane)],0.0893
3,NS(=O)(=O)c1cc2c(cc1Cl)NCNS2(=O)=O [Hydrochlorothiazide],0.0661
4,CN(C)CCC=C1c2ccccc2C=Cc2ccccc21 [Cyclobenzaprine hydrochloride],-0.033
5,CC(c1cc2ccccc2s1)N(O)C(N)=O (centres undefined) [Zileuton],0.0769
6,CC(=O)Oc1cc(C(C)C)c(OCCN(C)C)cc1C [Moxisylyte hydrochloride],-0.0473
7,CC1=C(/C=C/C(C)=C/C=C/C(C)=C/C(=O)Nc2ccc(O)cc2)C(C)(C)CCC1 [Retinoic acid p-hydroxyanilide],0.0693
8,CC1=C(/C=C/C(C)=C/C=C/C(C)=C/C(=O)Nc2ccc(O)cc2)C(C)(C)CCC1 [Fenretinide],0.000387
9,COc1cc2c(cc1OC)[C@@H](c1ccccc1)CN(C)CC2,0.394
10,CCN(CC)CCOC(=O)C1(C2CCCCC2)CCCCC1 [Dicyclomine hydrochloride],0.0819
11,CC(N/C(=N\C#N)Nc1ccncc1)C(C)(C)C (centres undefined) [Pinacidil],-0.0781
12,C[N+]1(C)CCC(OC(=O)C(c2ccccc2)c2ccccc2)CC1 [4-DAMP methiodide],0.0661
13,Oc1cc(O)c2c(c1)O[C@H](c1ccc(O)c(O)c1)[C@@H](O)C2 [(+)-Catechin Hydrate],-0.0272
14,CN(C)CCCN1c2ccccc2Sc2ccc(C(F)(F)F)cc21 [Triflupromazine hydrochloride],-0.367
15,N=C(NC(=O)c1nc(Cl)c(N)nc1N)Nc1ccccc1 [Phenamil methanesulfonate],0.206
16,COc1cc(C(=O)OCCCN2CCCN(CCCOC(=O)c3cc(OC)c(OC)c(OC)c3)CC2)cc(OC)c1OC [Dilazep hydrochloride],-0.0346
17,COC(=O)C1=C(C)NC(C)=C([N+](=O)[O-])C1c1ccccc1C(F)(F)F (centres undefined),0.0854
18,COc1ccc(-c2ccc3c(N4CCOC[C@@H]4C)nc(N4CCOC[C@@H]4C)nc3n2)cc1CO,-0.0182
19,C#CC(N)CCC(=O)O (centres undefined) [gamma-Acetylinic GABA],-0.0641
20,NCCC[C@](N)(C(=O)O)C(F)F (racemic) [DL-alpha-Difluoromethylornithine hydrochloride],0.0535
21,N#Cc1ccc(C(c2ccc(C#N)cc2)n2cncn2)cc1 [Letrozole],-0.00812
22,CN1CCN(C2=Nc3ccccc3Oc3ccc(Cl)cc32)CC1 [Loxapine succinate],0.00473
23,CC(=O)S[C@@H]1CC2=CC(=O)CC[C@]2(C)[C@H]2CC[C@@]3(C)[C@@H](CC[C@@]34CCC(=O)O4)[C@H]12 [Spironolactone],-0.0467
24,C#Cc1cccc(Nc2ncnc3cc(OC)c(OCCCCCCC(=O)NO)cc23)c1,0.11
25,NNCCc1ccccc1 [Phenelzine sulfate],-0.0213
26,NC1(C(=O)O)CCCCC1 [1-Amino-1-cyclohexanecarboxylic acid hydrochloride],-0.0563
27,CN1CCN(CC/C=C2/c3ccccc3Sc3ccc(S(=O)(=O)N(C)C)cc32)CC1 [Thiothixene hydrochloride],-0.574

# A run of entries taken from the entries so far:
row,Structure (SMILES),S-phase gammaH2AX median (Z-score)
13,Oc1cc(O)c2c(c1)O[C@H](c1ccc(O)c(O)c1)[C@@H](O)C2 [(+)-Catechin Hydrate],-0.0272
14,CN(C)CCCN1c2ccccc2Sc2ccc(C(F)(F)F)cc21 [Triflupromazine hydrochloride],-0.367
15,N=C(NC(=O)c1nc(Cl)c(N)nc1N)Nc1ccccc1 [Phenamil methanesulfonate],0.206
16,COc1cc(C(=O)OCCCN2CCCN(CCCOC(=O)c3cc(OC)c(OC)c(OC)c3)CC2)cc(OC)c1OC [Dilazep hydrochloride],-0.0346
17,COC(=O)C1=C(C)NC(C)=C([N+](=O)[O-])C1c1ccccc1C(F)(F)F (centres undefined),0.0854
18,COc1ccc(-c2ccc3c(N4CCOC[C@@H]4C)nc(N4CCOC[C@@H]4C)nc3n2)cc1CO,-0.0182
19,C#CC(N)CCC(=O)O (centres undefined) [gamma-Acetylinic GABA],-0.0641
20,NCCC[C@](N)(C(=O)O)C(F)F (racemic) [DL-alpha-Difluoromethylornithine hydrochloride],0.0535
21,N#Cc1ccc(C(c2ccc(C#N)cc2)n2cncn2)cc1 [Letrozole],-0.00812
22,CN1CCN(C2=Nc3ccccc3Oc3ccc(Cl)cc32)CC1 [Loxapine succinate],0.00473
23,CC(=O)S[C@@H]1CC2=CC(=O)CC[C@]2(C)[C@H]2CC[C@@]3(C)[C@@H](CC[C@@]34CCC(=O)O4)[C@H]12 [Spironolactone],-0.0467
24,C#Cc1cccc(Nc2ncnc3cc(OC)c(OCCCCCCC(=O)NO)cc23)c1,0.11

# Further results:

row,Structure (SMILES),S-phase gammaH2AX median (Z-score)
1,CC(C)(C=O)Cc1cc(C(C)(C)C)c(O)c(C(C)(C)C)c1,0.0913
2,CCCNC[C@H](O)COc1ccccc1C(=O)CCc1ccccc1 [(S)-(-)-propafenone hydrochloride],0.116
3,N#Cc1c(-c2ccccc2)no[n+]1[O-] [4-Phenyl-3-furoxancarbonitrile],0.097
4,"CCn1c(=O)c2[nH]c(-c3ccccc3)nc2n(CC)c1=O [1,3-Diethyl-8-phenylxanthine]",-0.0388
5,NCC(O)C1CCCCCCC1 (centres undefined) [2-Cyclooctyl-2-hydroxyethylamine hydrochloride],-0.00388
6,CN1CCC(=C2c3ccccc3C=Cc3ccccc32)CC1 [Cyproheptadine hydrochloride],0.0563
7,CC(=O)Nc1cccc(-n2c(=O)n(C3CC3)c(=O)c3c(Nc4ccc(I)cc4F)n(C)c(=O)c(C)c32)c1,-0.0313
8,CC[N+](C)(C)c1cccc(O)c1 [Edrophonium chloride],0.0598
9,COc1ccc(CCN(C)CCCOc2ccc(S(=O)(=O)c3c(C(C)C)n(C)c4ccccc34)cc2)cc1OC,-0.148
10,Cc1ccc(-c2csc3ncnc(SCCC(=O)O)c23)cc1,0.242
11,NCCc1c[nH]cn1 [Histamine dihydrochloride],-0.157
12,O=C(/C=C/C#Cc1cccc(NS(=O)(=O)c2ccccc2)c1)NO [Oxamflatin],1.62
13,Cc1cn[nH]c1 [4-Methylpyrazole hydrochloride],-0.0781
14,OCCN1CCN(CC/C=C2/c3ccccc3Sc3ccc(C(F)(F)F)cc32)CC1 [cis-(Z)-Flupenthixol dihydrochloride],-0.18
15,O=C(O)CCCCCCCC(=O)O [Azelaic acid],-0.0796
16,CC(=Cc1ccc(C(=O)O)cc1)c1ccc2c(c1)C(C)(C)CCC2(C)C,-0.0467
17,COC(=O)Nc1nc2cc(C(=O)c3cccs3)ccc2[nH]1 [Nocodazole],-0.0804 ± 0.19
18,C=CC(N)CCC(=O)O (centres undefined) [(?)-gamma-Vinyl GABA],-0.1
19,CC(C)(C)c1cnc(CSc2cnc(NC(=O)C3CCNCC3)s2)o1,0.134
20,"CC1(C)CCC=[N+]1[O-] [5,5-Dimethyl-1-pyrroline-N-oxide]",-0.0157
21,CC1(C)CCC(NC(=O)[C@@H](N)CCC(=O)O)CC1,0.0781
22,O=C(O)C1CCNCC1 [Isonipecotic acid],0.0126
23,O=C1NC(=O)C(c2ccccc2[N+](=O)[O-])=C1Nc1ccc(O)c(Cl)c1,0
24,Oc1ccc(C2CNCCc3c2cc(O)c(O)c3Cl)cc1 (centres undefined) [Fenoldopam bromide],-0.18
25,CCN(CC)CCCC(C)Nc1ccnc2cc(Cl)ccc12 (centres undefined) [Chloroquine diphosphate],-0.0621
26,CNCCNS(=O)(=O)c1cccc2cnccc12 [H-8 dihydrochloride],0.111
27,CCNC(=O)[C@H]1O[C@@H](n2cnc3c(N)nc(NCCc4ccc(CCC(=O)O)cc4)nc32)[C@H](O)[C@@H]1O,0.0971
